From publication PMC3140970
These are yes or no findings as the source states them, for the method shown. For some of these results: In cells and extracts the contact can be indirect. Some entries that bind do so weakly or less than the wild type. For some of these results: Where a sequence is shown, tags or fusion partners need not be part of it.

Chains of the proteins cited; added tags and fusions are not shown.
UniProt P50552: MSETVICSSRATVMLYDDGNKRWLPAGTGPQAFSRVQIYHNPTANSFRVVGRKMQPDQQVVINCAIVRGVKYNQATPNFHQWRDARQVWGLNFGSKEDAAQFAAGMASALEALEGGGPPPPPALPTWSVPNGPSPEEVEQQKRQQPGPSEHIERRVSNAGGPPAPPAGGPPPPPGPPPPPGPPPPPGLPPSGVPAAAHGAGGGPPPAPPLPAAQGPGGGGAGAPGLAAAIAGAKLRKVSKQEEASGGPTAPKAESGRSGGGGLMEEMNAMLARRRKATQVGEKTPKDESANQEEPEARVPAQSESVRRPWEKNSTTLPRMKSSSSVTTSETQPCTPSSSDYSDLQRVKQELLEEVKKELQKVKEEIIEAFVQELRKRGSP
UniProt Q12929: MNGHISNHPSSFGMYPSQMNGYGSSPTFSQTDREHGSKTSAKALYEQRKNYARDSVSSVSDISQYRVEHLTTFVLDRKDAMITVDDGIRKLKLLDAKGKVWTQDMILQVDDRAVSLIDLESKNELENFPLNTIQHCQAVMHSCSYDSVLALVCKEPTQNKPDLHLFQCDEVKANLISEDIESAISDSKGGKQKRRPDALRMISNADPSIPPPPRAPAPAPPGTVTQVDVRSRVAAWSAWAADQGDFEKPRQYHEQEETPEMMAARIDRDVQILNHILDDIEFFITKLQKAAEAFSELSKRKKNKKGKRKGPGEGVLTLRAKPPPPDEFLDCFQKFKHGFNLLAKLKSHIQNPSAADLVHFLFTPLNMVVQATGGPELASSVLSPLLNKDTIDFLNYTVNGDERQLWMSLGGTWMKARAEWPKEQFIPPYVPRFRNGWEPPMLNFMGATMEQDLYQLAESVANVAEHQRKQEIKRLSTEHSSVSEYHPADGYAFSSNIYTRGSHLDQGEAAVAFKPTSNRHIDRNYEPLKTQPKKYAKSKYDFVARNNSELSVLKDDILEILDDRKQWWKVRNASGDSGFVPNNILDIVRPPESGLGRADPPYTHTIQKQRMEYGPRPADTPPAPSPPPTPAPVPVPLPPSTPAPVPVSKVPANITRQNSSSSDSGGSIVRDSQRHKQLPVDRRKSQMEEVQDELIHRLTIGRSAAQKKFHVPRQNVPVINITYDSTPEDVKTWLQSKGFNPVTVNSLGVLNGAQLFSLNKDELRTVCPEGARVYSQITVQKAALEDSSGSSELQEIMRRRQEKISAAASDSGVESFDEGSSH

Assays:
[1] = target: VASP, endogenous in HeLa cells (human (endogenous in HeLa)) (UniProt P50552); assay: co-IP; HeLa cell lysates (1 mg) immunoprecipitated with anti-VASP or control antibodies, immunoblotted; also in cells treated with scrambled oligo or knocked down for Eps8
[2] = target: His-IRSp53 (UniProt Q9UQB8); assay: far-Western, overlay or dot blot; competition: 10 pmoles of His-IRSp53 spotted onto nitrocellulose, incubated with 100 nM purified VASP or BSA, without or with increasing amounts of GST-PPP or GST; immunoblot; both purified
[3] = target: T1, GST-IRSp53-SH3 (UniProt Q9UQB8); assay: far-Western, overlay or dot blot; 10 pmoles of His-IRSp53, GST-IRSp53-SH3 or BSA spotted onto nitrocellulose, incubated with increasing concentrations of purified VASP; anti-VASP immunoblot; fraction bound against total VASP; apparent dissociation constant; both purified
T1 sequence: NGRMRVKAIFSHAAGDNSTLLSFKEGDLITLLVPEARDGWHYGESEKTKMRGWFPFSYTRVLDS

## Eps8, endogenous in HeLa cells (from UniProt Q12929 1-822)
[1]
  binding: no binding

## VASP, recombinant, cleaved from GST (from UniProt P50552 1-380)
[2]
  binding: binds
[3]
  binding: binds

## IRSp53 in HeLa cell lysate (from UniProt Q9UQB8 1-552)
[1]
  binding: binds
